The test deals with T1, eIFiso4E (Arabidopsis thaliana (endogenous in Col-0 plants)) (UniProt O04663).
T1 sequence: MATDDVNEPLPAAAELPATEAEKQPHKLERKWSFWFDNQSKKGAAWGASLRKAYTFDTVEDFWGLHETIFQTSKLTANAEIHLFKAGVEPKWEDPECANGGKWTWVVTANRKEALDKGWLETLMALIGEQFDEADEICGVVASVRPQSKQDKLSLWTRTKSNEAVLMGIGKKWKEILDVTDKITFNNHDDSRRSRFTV
The experiment in a line: pull-down; m7GTP-agarose beads incubated 1 hour at 4°C with young-leaf lysates (wild-type and eif4e1KO, mock or TuMV-inoculated, 14 dpi); one wash; western blot with anti-eIFiso4G1 antibodies. Background: A western blot detects proteins with antibodies after separation by electrophoresis.

The chains behind the UniProt entries cited, without tags or fusion partners.
UniProt Q93ZT6: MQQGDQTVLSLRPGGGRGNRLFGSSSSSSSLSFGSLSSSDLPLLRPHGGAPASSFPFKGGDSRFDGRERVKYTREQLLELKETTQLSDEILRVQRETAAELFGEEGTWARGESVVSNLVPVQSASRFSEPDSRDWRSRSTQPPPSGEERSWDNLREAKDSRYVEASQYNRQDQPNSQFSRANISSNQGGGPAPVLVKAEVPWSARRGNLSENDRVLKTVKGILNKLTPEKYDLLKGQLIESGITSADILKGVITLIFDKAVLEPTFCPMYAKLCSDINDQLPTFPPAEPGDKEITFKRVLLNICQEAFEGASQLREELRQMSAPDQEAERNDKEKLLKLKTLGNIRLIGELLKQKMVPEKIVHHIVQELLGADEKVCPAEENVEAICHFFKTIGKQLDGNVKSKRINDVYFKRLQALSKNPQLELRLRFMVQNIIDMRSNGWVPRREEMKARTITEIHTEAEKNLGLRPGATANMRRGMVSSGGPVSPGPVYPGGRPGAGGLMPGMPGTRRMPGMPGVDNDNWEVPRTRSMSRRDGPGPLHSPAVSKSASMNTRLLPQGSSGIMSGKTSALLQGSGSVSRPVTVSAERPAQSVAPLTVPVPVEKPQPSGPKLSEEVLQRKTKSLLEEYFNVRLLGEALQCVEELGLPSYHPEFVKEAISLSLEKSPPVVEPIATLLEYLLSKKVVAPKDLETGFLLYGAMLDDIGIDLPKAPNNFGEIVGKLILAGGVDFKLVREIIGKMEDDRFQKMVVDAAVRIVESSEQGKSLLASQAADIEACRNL

Drawing on PMC10721207, this text covers binding for one substance.

These are yes or no findings as the source states them, for the method shown. In cells and extracts the contact can be indirect. Some entries that bind do so weakly or less than the wild type.

With eIFiso4G1 (from UniProt Q93ZT6 1-780), the binding entry is reported as “binds”.
